Data from patent US20230416356A1 (SCOUT BIO, published 2023).
Results are given in words; binding and its absence hold for the method and conditions named. Some entries that bind do so weakly or less than the wild type. For part of these data: Where a sequence is shown, tags or fusion partners need not be part of it.

Tests used:
[1] = biological target: T1, Canine IL-31 Mutant 1 (alanine substitutions at positions 76, 77, 80, 81 and 84 of SEQ ID NO:1; SEQ ID NO:62) (canine); test: ELISA, antigen coated
T1 sequence: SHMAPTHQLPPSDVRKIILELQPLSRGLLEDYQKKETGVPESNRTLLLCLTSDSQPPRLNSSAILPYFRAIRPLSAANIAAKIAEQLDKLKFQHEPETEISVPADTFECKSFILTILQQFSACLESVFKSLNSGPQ

[2] = biological target: T2, Canine IL-31 Mutant 2 (alanine substitutions at positions 13, 15, 20 and 26 of SEQ ID NO:1; SEQ ID NO:63) (canine); test: ELISA, antigen coated
T2 sequence: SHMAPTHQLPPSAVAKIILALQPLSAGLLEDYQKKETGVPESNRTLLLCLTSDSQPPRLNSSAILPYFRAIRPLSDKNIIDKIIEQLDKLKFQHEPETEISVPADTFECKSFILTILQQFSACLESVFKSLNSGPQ

[3] = biological target: T3, Feline IL-31 (SEQ ID NO: 64) (feline); test: ELISA, antigen coated
T3 sequence: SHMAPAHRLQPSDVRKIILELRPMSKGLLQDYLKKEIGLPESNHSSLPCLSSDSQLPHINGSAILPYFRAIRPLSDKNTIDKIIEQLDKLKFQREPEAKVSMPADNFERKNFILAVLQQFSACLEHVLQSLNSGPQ

[4] = biological target: T4, Recombinant canine IL-31 (ProSpec-Tany; amino acid residues 24-159 of Accession no. NP_001159386; SEQ ID NO:1) with C-terminal His-Tag (canine); test: ELISA, antigen coated
T4 sequence: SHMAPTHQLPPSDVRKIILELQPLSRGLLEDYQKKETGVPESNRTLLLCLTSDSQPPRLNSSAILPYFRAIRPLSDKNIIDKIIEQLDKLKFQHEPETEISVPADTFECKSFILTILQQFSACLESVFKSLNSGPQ

[5] = biological target: T5, Canine/Human chIL-31_c123_h4 (SEQ ID NO: 65) (canine/human chimeric); test: ELISA, protein coated (100 ng/well)
T5 sequence: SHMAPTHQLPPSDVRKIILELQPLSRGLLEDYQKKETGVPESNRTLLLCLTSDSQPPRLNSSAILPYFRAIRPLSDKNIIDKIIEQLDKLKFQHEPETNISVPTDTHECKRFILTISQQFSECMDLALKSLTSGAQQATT

[6] = biological target: T6, Canine/Human chIL-31_c12_h34 (SEQ ID NO: 66) (canine/human chimeric); test: ELISA, protein coated (100 ng/well)
T6 sequence: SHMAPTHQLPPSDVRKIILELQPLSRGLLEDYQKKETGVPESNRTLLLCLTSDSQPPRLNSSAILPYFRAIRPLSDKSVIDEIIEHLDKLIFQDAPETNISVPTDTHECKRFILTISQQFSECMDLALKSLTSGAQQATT

[7] = biological target: T7, Canine/Human chIL-31_c1_h234 (SEQ ID NO: 67) (canine/human chimeric); test: ELISA, protein coated (100 ng/well)
T7 sequence: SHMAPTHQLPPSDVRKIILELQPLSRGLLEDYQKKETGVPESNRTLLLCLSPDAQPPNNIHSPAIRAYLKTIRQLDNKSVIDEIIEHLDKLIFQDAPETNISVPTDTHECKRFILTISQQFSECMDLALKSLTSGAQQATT

[8] = biological target: T8, Canine IL-31_N-term (SEQ ID NO: 68) (canine); test: ELISA, peptide coated (100 ng/well)
T8 sequence (peptide): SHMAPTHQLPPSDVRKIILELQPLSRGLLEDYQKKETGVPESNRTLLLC

[9] = biological target: T9, Canine IL-31_N-term_20_3 (SEQ ID NO: 71) (canine); test: ELISA, peptide coated (100 ng/well)
T9 sequence (peptide): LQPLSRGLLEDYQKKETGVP

Measured: binding

B1: chimeric monoclonal antibody RA4 (chRA4) (antibody, V domains shown)
VH: QIQLVQSGPELKKPGETVKISCKASGYTFTDYSMHWVKQAPGKGLRWMGWINTETGKTIHAEDFKGRVAFSLETSASTAYLQINNLKNEDTATYFCASGRPDYWGQGTTLTVSS
VL: DIVLSQSPASLAVSLGQRATISCRASESVEYYGTSLMQWYQQKPGQPPKLLIYAASGVESGVPARFSGSGSGTDFSLIIHPVEEDDIAMYFCQQSRKVPYTFGGGTKLEIKR
notes: also called chimeric RA4; chimeric RA4.D2 antibody
binds: all assays above
